Protein sequences, listed by entry. Tags and fused reporters are not part of them. Lines headed by an entry give the natural chain unless they say otherwise; changes in a name come on top.
UniProt P03372: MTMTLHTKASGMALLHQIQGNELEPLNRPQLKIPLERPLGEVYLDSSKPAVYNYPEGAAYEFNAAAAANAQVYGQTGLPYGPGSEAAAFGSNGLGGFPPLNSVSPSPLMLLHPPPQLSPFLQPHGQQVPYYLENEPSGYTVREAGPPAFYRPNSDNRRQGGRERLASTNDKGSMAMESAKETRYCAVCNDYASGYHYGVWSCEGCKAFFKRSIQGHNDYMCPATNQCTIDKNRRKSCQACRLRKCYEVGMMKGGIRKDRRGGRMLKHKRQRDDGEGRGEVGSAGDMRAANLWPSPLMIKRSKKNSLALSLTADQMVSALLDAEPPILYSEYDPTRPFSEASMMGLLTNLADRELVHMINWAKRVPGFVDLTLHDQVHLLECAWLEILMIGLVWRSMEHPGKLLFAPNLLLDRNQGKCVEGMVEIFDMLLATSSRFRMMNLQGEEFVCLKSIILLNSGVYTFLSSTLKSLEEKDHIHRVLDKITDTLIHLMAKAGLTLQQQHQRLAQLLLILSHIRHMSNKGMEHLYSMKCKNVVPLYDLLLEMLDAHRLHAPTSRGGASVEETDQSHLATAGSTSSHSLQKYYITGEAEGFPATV

According to paper PMC7596556:

Biological target: T1, GST-TNPO2 (Transportin-2) (human) (UniProt O14787)
T1 sequence: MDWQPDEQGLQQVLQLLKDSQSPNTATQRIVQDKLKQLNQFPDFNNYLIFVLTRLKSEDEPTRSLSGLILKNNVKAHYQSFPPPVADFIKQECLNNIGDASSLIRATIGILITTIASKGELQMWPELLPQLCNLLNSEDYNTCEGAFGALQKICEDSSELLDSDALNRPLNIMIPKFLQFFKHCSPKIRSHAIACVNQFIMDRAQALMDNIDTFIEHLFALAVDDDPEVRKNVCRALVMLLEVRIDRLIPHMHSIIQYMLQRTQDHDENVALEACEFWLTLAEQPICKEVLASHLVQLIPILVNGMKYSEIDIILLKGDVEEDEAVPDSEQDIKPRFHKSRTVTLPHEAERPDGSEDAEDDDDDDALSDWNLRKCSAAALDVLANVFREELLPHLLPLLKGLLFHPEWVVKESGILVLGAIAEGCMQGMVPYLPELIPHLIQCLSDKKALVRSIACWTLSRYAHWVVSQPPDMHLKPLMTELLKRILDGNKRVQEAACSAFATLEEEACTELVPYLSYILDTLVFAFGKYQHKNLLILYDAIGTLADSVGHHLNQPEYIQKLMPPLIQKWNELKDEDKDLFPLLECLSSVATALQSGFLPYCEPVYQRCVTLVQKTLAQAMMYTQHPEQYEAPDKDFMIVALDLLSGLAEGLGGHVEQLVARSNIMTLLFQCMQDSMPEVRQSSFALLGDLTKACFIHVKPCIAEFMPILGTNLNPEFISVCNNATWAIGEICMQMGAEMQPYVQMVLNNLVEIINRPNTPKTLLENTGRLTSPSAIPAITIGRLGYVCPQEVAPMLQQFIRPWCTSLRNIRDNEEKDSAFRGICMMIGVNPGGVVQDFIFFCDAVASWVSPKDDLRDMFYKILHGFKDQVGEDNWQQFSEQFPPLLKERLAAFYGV
Experiment: pull-down; 50 pmol GST fusion protein on Glutathione Sepharose 4B mixed with lysate of transfected HeLa cells; cells untreated or treated with 10 nM E2; lysis buffer 20 mM HEPES/NaOH pH 7.3, 150 mM NaCl, 5 mM MgCl2, 0.05% Tween-20; western blot for HA; only the target purified

Row | Substance | binding
1 | 3 × HA-ERαΔ1-mNLS (from UniProt P03372) (domain or fragment) | binds
2 | 3 × HA-ERαΔ2-mNLS (from UniProt P03372) (domain or fragment) | binds weakly

These are yes or no findings as the source states them, for the method shown. In cells and extracts the contact can be indirect. A result given as binding can be weak or reduced; the word gives no strength. Sequences can lack the tags named with a protein.
